No constants are given. Whether binding was seen depends on the method and setting. Binding seen in cells or lysates may run through a third protein. Some binding calls cover weakened binding; strength is not graded here.
Assays:
[1] = molecular target: MCL1 (human (endogenous in MDA-MB-231)) (UniProt Q07820); assay: co-IP; control (untreated) MDA-MB-231 cells; 400 µg of RIPA whole cell lysate with 0.5 µg antibody against MCL1 for 2 h, then 40 µL IP matrix (ExactaCruz) overnight at 4 °C; washed with RIPA buffer; Western blot for MCL1, FAK and p130Cas; mock IP with beads alone
[2] = molecular target: MCL1 (human (endogenous in MDA-MB-231)) (UniProt Q07820); assay: co-IP; MDA-MB-231 cells treated with A-1210477; 400 µg of RIPA whole cell lysate with 0.5 µg antibody against MCL1 for 2 h, then 40 µL IP matrix (ExactaCruz) overnight at 4 °C; washed with RIPA buffer; Western blot for MCL1, FAK and p130Cas

Protein sequences, listed by entry. Tags and fused reporters are not part of them.
UniProt Q07820: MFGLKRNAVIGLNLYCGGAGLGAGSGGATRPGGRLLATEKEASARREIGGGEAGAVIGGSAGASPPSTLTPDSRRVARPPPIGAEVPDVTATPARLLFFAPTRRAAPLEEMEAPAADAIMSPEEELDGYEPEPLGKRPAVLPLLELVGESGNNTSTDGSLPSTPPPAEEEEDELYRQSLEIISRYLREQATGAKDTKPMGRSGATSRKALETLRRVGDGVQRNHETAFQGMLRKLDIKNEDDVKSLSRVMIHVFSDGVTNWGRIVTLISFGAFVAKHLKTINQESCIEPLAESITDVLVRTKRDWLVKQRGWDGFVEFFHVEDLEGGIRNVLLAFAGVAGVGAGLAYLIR
UniProt Q05397: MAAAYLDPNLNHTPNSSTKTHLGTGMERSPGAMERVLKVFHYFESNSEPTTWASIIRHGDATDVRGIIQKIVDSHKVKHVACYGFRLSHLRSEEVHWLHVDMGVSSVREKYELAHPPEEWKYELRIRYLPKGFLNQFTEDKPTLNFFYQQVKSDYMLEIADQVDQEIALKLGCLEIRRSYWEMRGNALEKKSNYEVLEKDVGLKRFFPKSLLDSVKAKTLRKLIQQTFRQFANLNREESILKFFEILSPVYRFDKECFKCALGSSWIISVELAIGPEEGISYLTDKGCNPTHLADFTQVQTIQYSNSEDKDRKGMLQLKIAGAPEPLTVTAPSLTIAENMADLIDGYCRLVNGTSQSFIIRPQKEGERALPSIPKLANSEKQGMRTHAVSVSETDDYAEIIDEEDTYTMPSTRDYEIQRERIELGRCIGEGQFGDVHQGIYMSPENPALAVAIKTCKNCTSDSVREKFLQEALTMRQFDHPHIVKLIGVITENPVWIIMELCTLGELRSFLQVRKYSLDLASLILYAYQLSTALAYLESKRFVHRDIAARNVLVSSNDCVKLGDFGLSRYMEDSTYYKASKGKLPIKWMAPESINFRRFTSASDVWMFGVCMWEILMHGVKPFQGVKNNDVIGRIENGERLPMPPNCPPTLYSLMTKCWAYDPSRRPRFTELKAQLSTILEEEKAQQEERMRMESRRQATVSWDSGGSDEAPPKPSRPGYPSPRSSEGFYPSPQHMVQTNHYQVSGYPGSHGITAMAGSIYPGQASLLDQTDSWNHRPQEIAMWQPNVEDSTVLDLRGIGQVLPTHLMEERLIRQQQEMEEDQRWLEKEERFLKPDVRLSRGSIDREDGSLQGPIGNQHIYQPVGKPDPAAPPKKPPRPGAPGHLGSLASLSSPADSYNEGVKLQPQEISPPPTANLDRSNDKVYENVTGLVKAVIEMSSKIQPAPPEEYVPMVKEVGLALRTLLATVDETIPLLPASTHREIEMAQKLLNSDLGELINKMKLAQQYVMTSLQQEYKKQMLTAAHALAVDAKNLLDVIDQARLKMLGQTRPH

| binding [1] | Molecule | binding [2] |
| --- | --- | --- |
| binds | focal adhesion kinase (FAK) (from UniProt Q05397 1-1052) | no binding (condition: cells treated with A-1210477) |
| binds | p130Cas (protein, UniProt P56945 1-870) MNHLNVLAKALYDNVAESPDELSFRKGDIMTVLEQDTQGLDGWWLCSLHGRQGIVPGNRLKILVGMYDKKPAGPGPGPPATPAQPQPGLHAPAPPASQYTPMLPNTYQPQPDSVYLVPTPSKAQQGLYQVPGPSPQFQSPPAKQTSTFSKQTPHHPFPSPATDLYQVPPGPGGPAQDIYQVPPSAGMGHDIYQVPPSMDTRSWEGTKPPAKVVVPTRVGQGYVYEAAQPEQDEYDIPRHLLAPGPQDIYDVPPVRGLLPSQYGQEVYDTPPMAVKGPNGRDPLLEVYDVPPSVEKGLPPSNHHAVYDVPPSVSKDVPDGPLLREETYDVPPAFAKAKPFDPARTPLVLAAPPPDSPPAEDVYDVPPPAPDLYDVPPGLRRPGPGTLYDVPRERVLPPEVADGGVVDSGVYAVPPPAEREAPAEGKRLSASSTGSTRSSQSASSLEVAGPGREPLELEVAVEALARLQQGVSATVAHLLDLAGSAGATGSWRSPSEPQEPLVQDLQAAVAAVQSAVHELLEFARSAVGNAAHTSDRALHAKLSRQLQKMEDVHQTLVAHGQALDAGRGGSGATLEDLDRLVACSRAVPEDAKQLASFLHGNASLLFRRTKATAPGPEGGGTLHPNPTDKTSSIQSRPLPSPPKFTSQDSPDGQYENSEGGWMEDYDYVHLQGKEEFEKTQKELLEKGSITRQGKSQLELQQLKQFERLEQEVSRPIDHDLANWTPAQPLAPGRTGGLGPSDRQLLLFYLEQCEANLTTLTNAVDAFFTAVATNQPPKIFVAHSKFVILSAHKLVFIGDTLSRQAKAADVRSQVTHYSNLLCDLLRGIVATTKAAALQYPSPSAAQDMVERVKELGHSTQQFRRVLGQLAAA | no binding (condition: cells treated with A-1210477) |

Reference: publication PMC10342057
